Some results were stated once for a whole list of compounds, not compound by compound.
Assays:
Type in all cases: in vivo
[1] = test system: Western Flower Thrips (Frankliniella occidentalis); assay: Insecticidal test on western flower thrips (kidney bean leaf pieces, hatched larvae); conditions: 4 days after the treatment
[2] = test system: Small Brown Planthopper (Laodelphax striatellus); assay: Insecticidal test on small brown planthopper (dipped rice seedlings, 3rd-instar larvae); conditions: rice seedlings dipped 30 seconds, 8 days after inoculation
[3] = test system: Diamondback moth (Plutella xylostella); assay: Insecticidal test on diamondback moth (dip treatment of Chinese cabbage seedlings with laid eggs); conditions: dip about 30 seconds, 6 days after treatment, 25° C.

N#Cc1ccc(N2CC(O)=C(C(=O)Nc3ccc(F)cc3)C(=O)N2)s1 [1-148]
A (the mortality rate is 100%): insecticidal efficacy (corrected mortality rate) against western flower thrips ([1]; 50 ppm) | insecticidal efficacy (corrected mortality rate) against western flower thrips ([1]; 500 ppm) | insecticidal efficacy (corrected mortality rate) against small brown planthopper ([2]; 50 ppm) | insecticidal efficacy (corrected mortality rate) against small brown planthopper ([2]; 500 ppm) | insecticidal efficacy (corrected mortality rate) against diamondback moth ([3]; 50 ppm) | insecticidal efficacy (corrected mortality rate) against diamondback moth ([3]; 500 ppm)

COc1cc(N2CC(O)=C(C(=O)Nc3ccc(F)c(F)c3)C(=O)N2)ccc1C#N [1-14]
A (the mortality rate is 100%): insecticidal efficacy (corrected mortality rate) against western flower thrips ([1]; 50 ppm) | insecticidal efficacy (corrected mortality rate) against western flower thrips ([1]; 500 ppm) | insecticidal efficacy (corrected mortality rate) against small brown planthopper ([2]; 50 ppm) | insecticidal efficacy (corrected mortality rate) against diamondback moth ([3]; 50 ppm) | insecticidal efficacy (corrected mortality rate) against diamondback moth ([3]; 500 ppm)

CCOC(=O)N1C(=O)C(C(=O)Nc2ccc(F)cc2)=C(O)CN1c1cnc(C#N)c(Cl)c1 [3-639]
A (the mortality rate is 100%): insecticidal efficacy (corrected mortality rate) against western flower thrips ([1]; 50 ppm) | insecticidal efficacy (corrected mortality rate) against western flower thrips ([1]; 500 ppm) | insecticidal efficacy (corrected mortality rate) against small brown planthopper ([2]; 50 ppm) | insecticidal efficacy (corrected mortality rate) against small brown planthopper ([2]; 500 ppm) | insecticidal efficacy (corrected mortality rate) against diamondback moth ([3]; 50 ppm) | insecticidal efficacy (corrected mortality rate) against diamondback moth ([3]; 500 ppm)

N#Cc1ccc(N2CC(O)=C(C(=O)Nc3ccc(Br)cc3)C(=O)N2)cn1 [1-83]
A (the mortality rate is 100%): insecticidal efficacy (corrected mortality rate) against western flower thrips ([1]; 500 ppm) | insecticidal efficacy (corrected mortality rate) against small brown planthopper ([2]; 500 ppm) | insecticidal efficacy (corrected mortality rate) against diamondback moth ([3]; 500 ppm)

COC(=O)N1C(=O)C(C(=O)Nc2ccc(F)cc2F)=C(O)CN1c1cnc(C#N)c(C)c1 [3-497]
A (the mortality rate is 100%): insecticidal efficacy (corrected mortality rate) against western flower thrips ([1]; 50 ppm) | insecticidal efficacy (corrected mortality rate) against western flower thrips ([1]; 500 ppm) | insecticidal efficacy (corrected mortality rate) against small brown planthopper ([2]; 50 ppm) | insecticidal efficacy (corrected mortality rate) against small brown planthopper ([2]; 500 ppm) | insecticidal efficacy (corrected mortality rate) against diamondback moth ([3]; 50 ppm) | insecticidal efficacy (corrected mortality rate) against diamondback moth ([3]; 500 ppm)

O=C(Nc1ccc(Cl)nc1)C1=C(O)CN(c2ccc(Br)nc2)NC1=O [1-46]
A (the mortality rate is 100%): insecticidal efficacy (corrected mortality rate) against western flower thrips ([1]; 500 ppm) | insecticidal efficacy (corrected mortality rate) against small brown planthopper ([2]; 500 ppm) | insecticidal efficacy (corrected mortality rate) against diamondback moth ([3]; 500 ppm)

COC(=O)N1C(=O)C(C(=O)Nc2cccc(F)c2F)=C(O)CN1c1cnc(C#N)c(Cl)c1 [3-482]
A (the mortality rate is 100%): insecticidal efficacy (corrected mortality rate) against western flower thrips ([1]; 50 ppm) | insecticidal efficacy (corrected mortality rate) against western flower thrips ([1]; 500 ppm) | insecticidal efficacy (corrected mortality rate) against small brown planthopper ([2]; 500 ppm) | insecticidal efficacy (corrected mortality rate) against diamondback moth ([3]; 500 ppm)

O=C1NN(c2ccc(Br)nc2)CC(O)=C1C(=S)Nc1ccc(F)cc1 [2-2]
A (the mortality rate is 100%): insecticidal efficacy (corrected mortality rate) against western flower thrips ([1]; 50 ppm) | insecticidal efficacy (corrected mortality rate) against western flower thrips ([1]; 500 ppm) | insecticidal efficacy (corrected mortality rate) against small brown planthopper ([2]; 50 ppm) | insecticidal efficacy (corrected mortality rate) against small brown planthopper ([2]; 500 ppm) | insecticidal efficacy (corrected mortality rate) against diamondback moth ([3]; 50 ppm) | insecticidal efficacy (corrected mortality rate) against diamondback moth ([3]; 500 ppm)

CCCOC(=O)N1C(=O)C(C(=O)Nc2ccc(F)cc2)=C(O)CN1c1ccc(C(F)(F)F)nc1 [3-264]
A (the mortality rate is 100%): insecticidal efficacy (corrected mortality rate) against western flower thrips ([1]; 50 ppm) | insecticidal efficacy (corrected mortality rate) against western flower thrips ([1]; 500 ppm) | insecticidal efficacy (corrected mortality rate) against small brown planthopper ([2]; 50 ppm) | insecticidal efficacy (corrected mortality rate) against small brown planthopper ([2]; 500 ppm) | insecticidal efficacy (corrected mortality rate) against diamondback moth ([3]; 50 ppm) | insecticidal efficacy (corrected mortality rate) against diamondback moth ([3]; 500 ppm)

Cc1ccc(NC(=O)C2=C(O)CN(c3cnc(C#N)c(Cl)c3)NC2=O)cc1 [1-191]
A (the mortality rate is 100%): insecticidal efficacy (corrected mortality rate) against western flower thrips ([1]; 50 ppm) | insecticidal efficacy (corrected mortality rate) against western flower thrips ([1]; 500 ppm) | insecticidal efficacy (corrected mortality rate) against small brown planthopper ([2]; 50 ppm) | insecticidal efficacy (corrected mortality rate) against small brown planthopper ([2]; 500 ppm) | insecticidal efficacy (corrected mortality rate) against diamondback moth ([3]; 500 ppm)

COC(=O)N1C(=O)C(C(=O)Nc2cccc(F)n2)=C(O)CN1c1ccc(C#N)cc1 [3-458]
A (the mortality rate is 100%): insecticidal efficacy (corrected mortality rate) against western flower thrips ([1]; 50 ppm) | insecticidal efficacy (corrected mortality rate) against western flower thrips ([1]; 500 ppm) | insecticidal efficacy (corrected mortality rate) against small brown planthopper ([2]; 50 ppm) | insecticidal efficacy (corrected mortality rate) against small brown planthopper ([2]; 500 ppm) | insecticidal efficacy (corrected mortality rate) against diamondback moth ([3]; 500 ppm)

COC(=O)N1C(=O)C(C(=O)Nc2ccc(Cl)c(Cl)c2)=C(O)CN1c1ccc(C#N)nc1 [3-189]
A (the mortality rate is 100%): insecticidal efficacy (corrected mortality rate) against western flower thrips ([1]; 50 ppm) | insecticidal efficacy (corrected mortality rate) against western flower thrips ([1]; 500 ppm) | insecticidal efficacy (corrected mortality rate) against small brown planthopper ([2]; 50 ppm) | insecticidal efficacy (corrected mortality rate) against small brown planthopper ([2]; 500 ppm) | insecticidal efficacy (corrected mortality rate) against diamondback moth ([3]; 50 ppm) | insecticidal efficacy (corrected mortality rate) against diamondback moth ([3]; 500 ppm)

C=CCOC(=O)N1C(=O)C(C(=O)Nc2ccc(F)cc2)=C(O)CN1c1ccc(C(F)(F)F)nc1 [3-316]
A (the mortality rate is 100%): insecticidal efficacy (corrected mortality rate) against western flower thrips ([1]; 50 ppm) | insecticidal efficacy (corrected mortality rate) against western flower thrips ([1]; 500 ppm) | insecticidal efficacy (corrected mortality rate) against small brown planthopper ([2]; 500 ppm) | insecticidal efficacy (corrected mortality rate) against diamondback moth ([3]; 500 ppm)

COC(=O)N1C(=O)C(C(=O)Nc2ccc(C)cc2)=C(O)CN1c1cnc(C#N)c(Cl)c1 [3-470]
A (the mortality rate is 100%): insecticidal efficacy (corrected mortality rate) against western flower thrips ([1]; 50 ppm) | insecticidal efficacy (corrected mortality rate) against western flower thrips ([1]; 500 ppm) | insecticidal efficacy (corrected mortality rate) against small brown planthopper ([2]; 50 ppm) | insecticidal efficacy (corrected mortality rate) against small brown planthopper ([2]; 500 ppm) | insecticidal efficacy (corrected mortality rate) against diamondback moth ([3]; 500 ppm)

O=C(Nc1ccc(F)nc1)C1=C(O)CN(c2ccc(Br)nc2)NC1=O [1-51]
A (the mortality rate is 100%): insecticidal efficacy (corrected mortality rate) against western flower thrips ([1]; 500 ppm) | insecticidal efficacy (corrected mortality rate) against small brown planthopper ([2]; 500 ppm) | insecticidal efficacy (corrected mortality rate) against diamondback moth ([3]; 500 ppm)
